Test results reported in patent US20130052670A1.
These are yes or no findings as the source states them, for the method shown. Some binding calls cover weakened binding; strength is not graded here.

The chains behind the UniProt entries cited, without tags or fusion partners. Residues count along the entry.
Aβ oligomers (ADDLs, amyloid-β derived diffusible ligands) prepared from Aβ42 (P05067, residues 672-713): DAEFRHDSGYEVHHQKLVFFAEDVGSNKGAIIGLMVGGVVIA
Aβ40 monomer (amyloid β peptide 1-40) (P05067, residues 672-711): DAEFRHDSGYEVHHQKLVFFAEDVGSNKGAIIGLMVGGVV

Tests used:
[1] = biological target: Aβ oligomers (ADDLs, amyloid-β derived diffusible ligands) prepared from Aβ42 (UniProt P05067); assay: ELISA (FIGS. 1A-1C)
[2] = biological target: Aβ oligomers (ADDLs, amyloid-β derived diffusible ligands) prepared from Aβ42 (UniProt P05067); assay: target engagement sandwich ELISA, complexes formed ex vivo in human CSF or casein buffer
[3] = biological target: Aβ oligomers (ADDLs, amyloid-β derived diffusible ligands) prepared from Aβ42 (UniProt P05067); assay: competitive binding ELISA with Aβ oligomers and Aβ monomer
[4] = biological target: Aβ40 monomer (amyloid β peptide 1-40) (UniProt P05067); assay: one-sided ELISA on coated plates
[5] = biological target: Aβ oligomers (ADDLs, amyloid-β derived diffusible ligands) prepared from Aβ42 (UniProt P05067); assay: one-sided ELISA on coated plates

Measured: binding

B1: anti-Aβ oligomer antibody 19.3 (antibody, V domains shown)
VH: EVQLVESGGGLVQPGGSLRLSCAASGFTFSSFGMHWVRQAPGKGLEWVAYISRGSSTIYYADTVKGRFTISRDNAKNSLYLQMNSLRAEDTAVYYCARGITTALDYWGQGTLVTVSS
VL: DVVMTQSPLSLPVTPGEPASISCRSSQSIVHSNGNTYLEWYLQKPGQSPQLLIYKASNRFSGVPDRFSGSGSGTDFTLKISRVEAEDVGVYYCFQGSRLGPSFGQGTKLEIK
binds: all assays above
